PubChem BioAssay AID1159578, Peter MacCallum Cancer Centre, 2015
The deposit covers about 18,000 reagents; this is an unselected part. About 1,030 of all reagents (5.7%) were called active. 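Inactive calls also include pools with fewer than 3300 nuclei, whose migration was not assessed.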 Raw values are not corrected between plates. Not all columns of the deposit are shown. No sequences are given here.

Assay: 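Genome-wide hunt for genes controlling movement of lymphatic endothelial cells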 (primary screen)
Cell system: human lymphatic endothelial cells
Reagent: siRNA pool against human genes, 40 nM
Timing: 48 h after transfection
Measured: 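Cells stained with dye and imaged after a scratch; covered wound area and nuclei counted, duplicates averaged, migration set against mock wells and turned into a robust z-score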
Reading the numbers: migration robust z-score: higher = faster migration into the scratch; nuclei per well: higher = more cells in the well
Hit rule: 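Pools averaging fewer than 3300 nuclei are never called; remaining pools count as changed when migration robust z lies outside -2 to 2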
Calls: active = migration changed; inactive = no migration change, or too few cells

TMEM184C (transmembrane protein 184C) | migration robust z-score: -0.3; migration class with cell-count check: migration z between -2 and 2; enough cells; nuclei per well, duplicate mean: 5527; call: inactive
MICA (MHC class I polypeptide-related sequence A) | migration robust z-score: -0.67; migration class with cell-count check: migration z between -2 and 2; enough cells; nuclei per well, duplicate mean: 4996; call: inactive
SNX32 (sorting nexin 32) | migration robust z-score: 0.44; migration class with cell-count check: migration z between -2 and 2; enough cells; nuclei per well, duplicate mean: 6524; call: inactive
VIP (vasoactive intestinal peptide) | migration robust z-score: 0.37; migration class with cell-count check: migration z between -2 and 2; enough cells; nuclei per well, duplicate mean: 6236; call: inactive
SERTAD2 (SERTA domain containing 2) | migration robust z-score: -0.7; migration class with cell-count check: migration z between -2 and 2; enough cells; nuclei per well, duplicate mean: 5038; call: inactive
OGFOD1 | migration robust z-score: -0.28; migration class with cell-count check: migration z between -2 and 2; enough cells; nuclei per well, duplicate mean: 6413; call: inactive
TAP1 (transporter 1, ATP binding cassette subfamily B member) | migration robust z-score: 0.08; migration class with cell-count check: migration z between -2 and 2; enough cells; nuclei per well, duplicate mean: 6082; call: inactive
BTBD3 (BTB domain containing 3) | migration robust z-score: 0.58; migration class with cell-count check: migration z between -2 and 2; enough cells; nuclei per well, duplicate mean: 5695; call: inactive
EMCN (endomucin) | migration robust z-score: 0.24; migration class with cell-count check: migration z between -2 and 2; enough cells; nuclei per well, duplicate mean: 6671; call: inactive
PUS7 (pseudouridine synthase 7) | migration robust z-score: -0.08; migration class with cell-count check: migration z between -2 and 2; enough cells; nuclei per well, duplicate mean: 5704; call: inactive
CRB3 (crumbs cell polarity complex component 3) | migration robust z-score: -0.39; migration class with cell-count check: migration z between -2 and 2; enough cells; nuclei per well, duplicate mean: 5148; call: inactive

Part of the list above, reduced to “migration class with cell-count check”.
BTBD3 (BTB domain containing 3)	migration z between -2 and 2; enough cells
EMCN (endomucin)	migration z between -2 and 2; enough cells
PUS7 (pseudouridine synthase 7)	migration z between -2 and 2; enough cells

More reagents follow.
MCAM (melanoma cell adhesion molecule) | migration robust z-score: -0.34; migration class with cell-count check: migration z between -2 and 2; enough cells; nuclei per well, duplicate mean: 6440; call: inactive
MYH7B (myosin heavy chain 7B) | migration robust z-score: -0.61; migration class with cell-count check: migration z between -2 and 2; enough cells; nuclei per well, duplicate mean: 4525; call: inactive
JRK (Jrk helix-turn-helix protein) | migration robust z-score: -0.14; migration class with cell-count check: migration z between -2 and 2; enough cells; nuclei per well, duplicate mean: 5273; call: inactive
ENPP3 (ectonucleotide pyrophosphatase/phosphodiesterase 3) | migration robust z-score: -1.09; migration class with cell-count check: migration z between -2 and 2; enough cells; nuclei per well, duplicate mean: 6203; call: inactive
ARHGAP36 (Rho GTPase activating protein 36) | migration robust z-score: -1.02; migration class with cell-count check: migration z between -2 and 2; enough cells; nuclei per well, duplicate mean: 5634; call: inactive
LRRC20 (leucine rich repeat containing 20) | migration robust z-score: 0.48; migration class with cell-count check: migration z between -2 and 2; enough cells; nuclei per well, duplicate mean: 4844; call: inactive
DENR (density regulated re-initiation and release factor) | migration robust z-score: 0.6; migration class with cell-count check: migration z between -2 and 2; enough cells; nuclei per well, duplicate mean: 6062; call: inactive
PABPC1L2A (poly(A) binding protein cytoplasmic 1 like 2A) | migration robust z-score: 0.46; migration class with cell-count check: migration z between -2 and 2; enough cells; nuclei per well, duplicate mean: 5798; call: inactive
CTSE (cathepsin E) | migration robust z-score: -0.39; migration class with cell-count check: migration z between -2 and 2; enough cells; nuclei per well, duplicate mean: 4888; call: inactive
MEPCE (methylphosphate capping enzyme) | migration robust z-score: -0.66; migration class with cell-count check: migration z between -2 and 2; enough cells; nuclei per well, duplicate mean: 4914; call: inactive
